{"sequences": {"note": "Protein sequences, listed by entry. Tags and fused reporters are not part of them. Lines headed by an entry give the natural chain unless they say otherwise; changes in a name come on top.", "UniProt Q86U86, whole entry, looked up": "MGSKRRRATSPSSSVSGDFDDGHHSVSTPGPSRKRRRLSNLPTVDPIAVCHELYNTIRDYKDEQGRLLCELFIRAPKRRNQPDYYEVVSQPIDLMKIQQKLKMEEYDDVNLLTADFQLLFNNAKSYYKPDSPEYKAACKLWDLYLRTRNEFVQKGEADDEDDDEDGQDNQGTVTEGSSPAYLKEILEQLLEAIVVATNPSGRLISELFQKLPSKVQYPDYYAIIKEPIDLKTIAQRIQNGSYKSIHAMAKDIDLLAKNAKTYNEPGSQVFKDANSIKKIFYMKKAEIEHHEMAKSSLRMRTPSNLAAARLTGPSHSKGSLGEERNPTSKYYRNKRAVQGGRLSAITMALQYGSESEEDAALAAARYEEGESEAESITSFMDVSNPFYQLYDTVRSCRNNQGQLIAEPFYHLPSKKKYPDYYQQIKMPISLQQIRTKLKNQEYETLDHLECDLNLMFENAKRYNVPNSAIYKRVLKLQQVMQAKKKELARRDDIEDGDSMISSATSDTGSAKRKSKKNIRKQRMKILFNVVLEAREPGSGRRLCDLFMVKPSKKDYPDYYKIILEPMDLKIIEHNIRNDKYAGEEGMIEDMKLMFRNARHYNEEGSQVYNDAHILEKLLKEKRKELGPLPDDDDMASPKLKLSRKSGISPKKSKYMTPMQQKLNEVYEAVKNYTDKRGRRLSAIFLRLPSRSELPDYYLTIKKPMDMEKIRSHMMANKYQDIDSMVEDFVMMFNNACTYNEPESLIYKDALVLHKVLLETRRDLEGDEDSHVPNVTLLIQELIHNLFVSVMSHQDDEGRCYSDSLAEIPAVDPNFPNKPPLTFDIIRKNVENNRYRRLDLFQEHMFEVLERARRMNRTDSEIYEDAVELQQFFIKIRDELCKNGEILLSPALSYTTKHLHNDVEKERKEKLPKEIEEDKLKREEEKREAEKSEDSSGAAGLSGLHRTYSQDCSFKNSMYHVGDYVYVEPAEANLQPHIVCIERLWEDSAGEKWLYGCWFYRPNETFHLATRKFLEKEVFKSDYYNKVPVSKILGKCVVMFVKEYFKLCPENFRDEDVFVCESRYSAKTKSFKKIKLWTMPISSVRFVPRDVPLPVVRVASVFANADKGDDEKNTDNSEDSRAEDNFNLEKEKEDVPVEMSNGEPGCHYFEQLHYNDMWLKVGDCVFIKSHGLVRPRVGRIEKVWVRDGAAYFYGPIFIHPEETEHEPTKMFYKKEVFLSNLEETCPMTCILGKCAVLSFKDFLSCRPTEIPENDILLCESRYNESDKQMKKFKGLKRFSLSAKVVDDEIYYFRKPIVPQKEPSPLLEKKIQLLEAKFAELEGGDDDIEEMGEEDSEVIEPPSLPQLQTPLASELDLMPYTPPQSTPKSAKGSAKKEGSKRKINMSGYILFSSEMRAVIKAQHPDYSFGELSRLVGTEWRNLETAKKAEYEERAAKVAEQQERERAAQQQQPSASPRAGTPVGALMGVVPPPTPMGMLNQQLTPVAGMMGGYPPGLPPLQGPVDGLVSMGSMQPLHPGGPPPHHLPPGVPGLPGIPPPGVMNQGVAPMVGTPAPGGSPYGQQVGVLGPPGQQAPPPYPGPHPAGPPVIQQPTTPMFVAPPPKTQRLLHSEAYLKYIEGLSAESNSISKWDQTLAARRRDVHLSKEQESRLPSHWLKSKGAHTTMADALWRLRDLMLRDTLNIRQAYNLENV", "UniProt Q5JVF3": "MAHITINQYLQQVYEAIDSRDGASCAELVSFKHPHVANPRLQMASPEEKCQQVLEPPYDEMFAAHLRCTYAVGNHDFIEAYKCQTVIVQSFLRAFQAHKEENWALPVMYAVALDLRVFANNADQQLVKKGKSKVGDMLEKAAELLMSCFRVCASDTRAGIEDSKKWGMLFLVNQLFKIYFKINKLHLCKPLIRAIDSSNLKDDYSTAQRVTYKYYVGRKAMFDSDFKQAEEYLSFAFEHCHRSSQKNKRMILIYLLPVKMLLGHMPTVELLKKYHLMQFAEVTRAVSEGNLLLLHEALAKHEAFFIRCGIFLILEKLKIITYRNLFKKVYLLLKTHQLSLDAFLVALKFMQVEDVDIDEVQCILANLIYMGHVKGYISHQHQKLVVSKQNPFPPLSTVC", "UniProt Q53EL6": "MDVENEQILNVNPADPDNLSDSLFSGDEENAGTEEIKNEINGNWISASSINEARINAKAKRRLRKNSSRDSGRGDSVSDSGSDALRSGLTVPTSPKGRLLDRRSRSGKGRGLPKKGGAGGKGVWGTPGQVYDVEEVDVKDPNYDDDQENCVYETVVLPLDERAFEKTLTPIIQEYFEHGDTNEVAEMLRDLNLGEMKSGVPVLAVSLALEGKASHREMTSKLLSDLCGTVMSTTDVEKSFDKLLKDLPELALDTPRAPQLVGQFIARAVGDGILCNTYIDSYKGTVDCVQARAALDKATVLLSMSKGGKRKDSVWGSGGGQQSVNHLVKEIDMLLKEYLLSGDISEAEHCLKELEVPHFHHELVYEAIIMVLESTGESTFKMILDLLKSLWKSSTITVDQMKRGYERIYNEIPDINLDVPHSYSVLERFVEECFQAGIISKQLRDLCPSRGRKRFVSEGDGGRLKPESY", "UniProt Q15154": "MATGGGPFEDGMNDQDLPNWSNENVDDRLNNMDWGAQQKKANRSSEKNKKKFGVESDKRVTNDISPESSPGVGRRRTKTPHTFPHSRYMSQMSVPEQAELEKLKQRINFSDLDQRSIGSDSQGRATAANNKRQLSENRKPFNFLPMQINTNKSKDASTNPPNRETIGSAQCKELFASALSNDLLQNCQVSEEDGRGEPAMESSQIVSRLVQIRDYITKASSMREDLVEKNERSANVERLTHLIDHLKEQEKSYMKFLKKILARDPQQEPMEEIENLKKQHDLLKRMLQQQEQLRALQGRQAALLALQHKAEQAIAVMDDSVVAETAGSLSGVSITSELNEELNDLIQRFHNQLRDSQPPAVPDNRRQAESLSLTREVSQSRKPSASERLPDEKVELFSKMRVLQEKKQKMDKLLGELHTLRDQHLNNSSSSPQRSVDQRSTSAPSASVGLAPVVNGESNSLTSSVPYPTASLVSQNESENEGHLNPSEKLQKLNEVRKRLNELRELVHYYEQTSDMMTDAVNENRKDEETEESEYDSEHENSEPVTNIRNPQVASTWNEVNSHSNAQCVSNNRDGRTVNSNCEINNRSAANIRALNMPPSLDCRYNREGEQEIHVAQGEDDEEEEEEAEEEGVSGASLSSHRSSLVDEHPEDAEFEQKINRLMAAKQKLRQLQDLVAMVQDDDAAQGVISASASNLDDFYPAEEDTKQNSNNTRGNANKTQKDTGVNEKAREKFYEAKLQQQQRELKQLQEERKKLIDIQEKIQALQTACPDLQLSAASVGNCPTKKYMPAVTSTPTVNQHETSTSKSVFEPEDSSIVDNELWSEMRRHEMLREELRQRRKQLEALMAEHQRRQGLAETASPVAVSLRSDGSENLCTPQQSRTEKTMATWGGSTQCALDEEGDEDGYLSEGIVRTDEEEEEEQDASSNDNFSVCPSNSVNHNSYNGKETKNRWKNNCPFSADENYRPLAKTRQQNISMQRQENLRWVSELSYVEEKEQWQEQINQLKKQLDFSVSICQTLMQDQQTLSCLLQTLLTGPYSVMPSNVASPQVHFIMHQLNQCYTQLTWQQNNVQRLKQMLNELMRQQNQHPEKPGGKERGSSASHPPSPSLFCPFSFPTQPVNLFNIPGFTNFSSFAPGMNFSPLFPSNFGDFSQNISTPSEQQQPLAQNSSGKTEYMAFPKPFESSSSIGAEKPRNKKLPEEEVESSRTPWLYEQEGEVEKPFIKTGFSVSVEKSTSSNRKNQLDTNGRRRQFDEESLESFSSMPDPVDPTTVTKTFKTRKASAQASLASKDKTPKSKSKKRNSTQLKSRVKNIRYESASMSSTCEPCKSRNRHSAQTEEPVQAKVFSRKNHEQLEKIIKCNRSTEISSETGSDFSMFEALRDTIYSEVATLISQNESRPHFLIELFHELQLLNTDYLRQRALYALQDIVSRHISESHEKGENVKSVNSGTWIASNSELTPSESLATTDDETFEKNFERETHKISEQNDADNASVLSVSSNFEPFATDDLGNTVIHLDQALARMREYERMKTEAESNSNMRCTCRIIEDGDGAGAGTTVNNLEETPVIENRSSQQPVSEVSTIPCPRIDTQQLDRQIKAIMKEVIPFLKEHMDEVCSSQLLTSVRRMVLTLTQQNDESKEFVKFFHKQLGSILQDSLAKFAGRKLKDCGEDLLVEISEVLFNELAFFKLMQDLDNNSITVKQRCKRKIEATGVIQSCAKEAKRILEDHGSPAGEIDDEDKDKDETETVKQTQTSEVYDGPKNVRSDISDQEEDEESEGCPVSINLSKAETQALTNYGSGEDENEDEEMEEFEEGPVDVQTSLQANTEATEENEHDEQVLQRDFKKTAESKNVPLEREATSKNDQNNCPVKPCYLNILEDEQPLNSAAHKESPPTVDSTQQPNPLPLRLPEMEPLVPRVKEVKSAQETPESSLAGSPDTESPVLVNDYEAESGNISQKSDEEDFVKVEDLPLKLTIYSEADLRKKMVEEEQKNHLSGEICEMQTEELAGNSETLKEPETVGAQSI", "UniProt O94913, whole entry, looked up": "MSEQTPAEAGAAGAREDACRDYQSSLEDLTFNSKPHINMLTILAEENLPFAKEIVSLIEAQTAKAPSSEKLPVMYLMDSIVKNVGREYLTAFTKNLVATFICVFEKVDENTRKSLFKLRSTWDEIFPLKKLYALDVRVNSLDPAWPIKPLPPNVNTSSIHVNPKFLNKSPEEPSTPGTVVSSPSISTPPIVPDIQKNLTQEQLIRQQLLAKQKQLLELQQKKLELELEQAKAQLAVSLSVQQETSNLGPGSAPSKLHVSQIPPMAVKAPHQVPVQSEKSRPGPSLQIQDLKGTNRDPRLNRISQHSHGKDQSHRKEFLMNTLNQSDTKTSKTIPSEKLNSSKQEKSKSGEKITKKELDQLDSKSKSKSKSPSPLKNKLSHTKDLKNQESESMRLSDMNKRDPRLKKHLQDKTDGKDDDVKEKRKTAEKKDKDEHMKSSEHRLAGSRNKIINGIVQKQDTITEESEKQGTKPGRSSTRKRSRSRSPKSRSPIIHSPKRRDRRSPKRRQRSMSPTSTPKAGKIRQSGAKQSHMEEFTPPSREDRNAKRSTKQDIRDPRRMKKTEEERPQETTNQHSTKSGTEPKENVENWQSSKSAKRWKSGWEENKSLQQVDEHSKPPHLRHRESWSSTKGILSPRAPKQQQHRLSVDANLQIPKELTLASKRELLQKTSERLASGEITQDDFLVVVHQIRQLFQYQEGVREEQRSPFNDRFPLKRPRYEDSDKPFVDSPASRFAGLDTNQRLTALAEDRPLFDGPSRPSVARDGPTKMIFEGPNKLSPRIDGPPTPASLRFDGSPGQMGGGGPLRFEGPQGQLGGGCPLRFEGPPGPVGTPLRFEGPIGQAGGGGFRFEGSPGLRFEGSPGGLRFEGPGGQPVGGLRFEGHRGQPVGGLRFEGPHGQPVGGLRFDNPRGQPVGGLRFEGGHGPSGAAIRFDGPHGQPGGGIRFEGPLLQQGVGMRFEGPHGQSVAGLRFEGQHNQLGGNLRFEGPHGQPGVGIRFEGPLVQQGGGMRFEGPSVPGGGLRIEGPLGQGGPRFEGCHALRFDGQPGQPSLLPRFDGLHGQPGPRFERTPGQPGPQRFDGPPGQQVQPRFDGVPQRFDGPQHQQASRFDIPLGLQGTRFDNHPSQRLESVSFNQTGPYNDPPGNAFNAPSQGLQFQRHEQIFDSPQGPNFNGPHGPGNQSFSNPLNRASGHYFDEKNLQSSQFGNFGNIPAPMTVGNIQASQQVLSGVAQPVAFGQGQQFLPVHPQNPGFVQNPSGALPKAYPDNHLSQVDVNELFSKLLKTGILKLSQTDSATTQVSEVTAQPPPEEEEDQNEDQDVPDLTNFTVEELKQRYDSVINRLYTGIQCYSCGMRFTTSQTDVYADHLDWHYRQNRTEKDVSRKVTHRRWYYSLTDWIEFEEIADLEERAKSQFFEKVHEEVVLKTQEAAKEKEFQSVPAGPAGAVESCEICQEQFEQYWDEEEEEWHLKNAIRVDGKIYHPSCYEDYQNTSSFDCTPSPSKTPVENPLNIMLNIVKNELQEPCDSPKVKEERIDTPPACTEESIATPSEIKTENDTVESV"}, "source": "the supplement of paper PMC12067093", "about": "“Discovery and optimisation of a covalent ligand for TRIM25 and its application to targeted protein ubiquitination” (Chemical Science, 2025)", "compound": "CC1Cc2ccccc2N1C(=O)C1CCCN(C1)C(=O)CCl (mixture of isomers) [TRIM25 ligand 11 (diastereomer mixture)]", "experiment": "probe-labelled cysteine peptide fold change vs DMSO (competition) (log2 fold change); higher = less target engagement (more negative = stronger competition)", "settings": "THP-1, incubation time: 4 h", "note": "The other results are listed elsewhere or left out.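 Also: competitive chemoproteomic profiling in live THP-1 cells with an iodoacetamide desthiobiotin (IA-DTB) probe, comparing probe-labelled peptide intensities in compound-treated cells against DMSO-treated controls.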"}
{"target": "PBRM1_Q86U86_1035_CVVMFVK (UniProt Q86U86)", "values": [{"measurement": "probe-labelled cysteine peptide fold change", "setting": "10 µM", "value": 0.114}, {"measurement": "probe-labelled cysteine peptide fold change", "setting": "50 µM", "value": 0.0732}]}
{"target": "PCID2_Q5JVF3_148_AAELLMSCFR (UniProt Q5JVF3)", "values": [{"measurement": "probe-labelled cysteine peptide fold change", "setting": "10 µM", "value": 0.131}, {"measurement": "probe-labelled cysteine peptide fold change", "setting": "50 µM", "value": 0.228}]}
{"target": "PDCD4_Q53EL6_350_EYLLSGDISEAEHCLK (UniProt Q53EL6)", "values": [{"measurement": "probe-labelled cysteine peptide fold change", "setting": "10 µM", "value": 0.161}, {"measurement": "probe-labelled cysteine peptide fold change", "setting": "50 µM", "value": 0.0604}]}
{"target": "PCM1_Q15154_1779_SDISDQEEDEESEGCPVSINLSK (UniProt Q15154)", "values": [{"measurement": "probe-labelled cysteine peptide fold change", "setting": "10 µM", "value": -0.217}, {"measurement": "probe-labelled cysteine peptide fold change", "setting": "50 µM", "value": -0.0365}]}
{"target": "PDIA3_P30101_57+60_ISDTGSAGLMLVEFFAPWCGHCK (UniProt P30101)", "values": [{"measurement": "probe-labelled cysteine peptide fold change", "setting": "10 µM", "value": -0.212}, {"measurement": "probe-labelled cysteine peptide fold change", "setting": "50 µM", "value": -0.179}]}
{"target": "PCF11_O94913_1518_NELQEPCDSPK (UniProt O94913)", "values": [{"measurement": "probe-labelled cysteine peptide fold change", "setting": "10 µM", "value": -0.0353}, {"measurement": "probe-labelled cysteine peptide fold change", "setting": "50 µM", "value": -0.154}]}
